In the supplement of paper PMC12889115:
Some of the results follow. Values are raw readings; no control value is given beside them.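 In the initial screen, polymyxin B was used at a concentration that permeabilizes Salmonella's outer membrane but not its inner membrane. Maximum growth was set by DMSO wells with or without polymyxin B. Since plates varied, data were ranked per plate, and compounds giving the lowest OD600 advanced as hits.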

Tested on: Salmonella enterica serovar Typhimurium SL1344
Assay: bacterial growth OD600 after 18 h with compound and polymyxin B; higher = more bacterial growth (less inhibition)
Conditions: 50 µM, Mueller-Hinton broth

SMILES: O=C(CCC(=O)N1CCCC(Nc2ccc(F)c(F)c2)C1)c1ccccc1 (centres undefined)
- bacterial growth OD600 (polymyxin B 1 µg/mL): 0.588

SMILES: COc1ccc(Cc2noc(-c3ccc(N4CCCC4)nc3)n2)cc1
- bacterial growth OD600 (polymyxin B 1 µg/mL): 0.901

SMILES: CN(Cc1ccccn1)C(=O)c1cc(Cn2ccc3ccccc32)[nH]n1
- bacterial growth OD600 (polymyxin B 0.75 µg/mL): 0.773

SMILES: O=C(CCc1ccsc1)NC1CC(=O)N(Cc2ccc(F)cc2)C1 (centres undefined)
- bacterial growth OD600 (polymyxin B 1 µg/mL): 0.893

SMILES: COc1cc([C@@H]2C[C@H]3CN(C4CCCC4)C(=O)[C@]34CCCN24)cc(OC)c1OC
- bacterial growth OD600 (polymyxin B 0.75 µg/mL): 0.871

SMILES: Cn1c(C2CCC2)nc2cc(C(=O)N3CCC(c4ccncc4)CC3)cc(NC(=O)C3CCCO3)c21 (centres undefined)
- bacterial growth OD600 (polymyxin B 0.75 µg/mL): 0.809

SMILES: Cc1cc(CN2CCCC(CNC(=O)c3cccc(C(F)(F)F)c3)C2)[nH]n1 (centres undefined)
- bacterial growth OD600 (polymyxin B 0.75 µg/mL): 0.84

SMILES: Cc1nc(N2CCC(NCCC3=CCCCC3)CC2)nc2ccc(F)cc12
- bacterial growth OD600 (polymyxin B 0.75 µg/mL): 0.731

SMILES: CC(C)CCCC1CN(C(=O)CCN2CCCCO2)CCO1 (centres undefined)
- bacterial growth OD600 (polymyxin B 1 µg/mL): 0.976
